Laboratory results taken from the supplement of paper PMC10849652.
The other results are listed elsewhere or left out.

The chains behind the UniProt entries cited, without tags or fusion partners. Where a name states a change or a piece, a line headed by the entry shows the natural chain unless it says otherwise.
UniProt P27797, whole entry, looked up: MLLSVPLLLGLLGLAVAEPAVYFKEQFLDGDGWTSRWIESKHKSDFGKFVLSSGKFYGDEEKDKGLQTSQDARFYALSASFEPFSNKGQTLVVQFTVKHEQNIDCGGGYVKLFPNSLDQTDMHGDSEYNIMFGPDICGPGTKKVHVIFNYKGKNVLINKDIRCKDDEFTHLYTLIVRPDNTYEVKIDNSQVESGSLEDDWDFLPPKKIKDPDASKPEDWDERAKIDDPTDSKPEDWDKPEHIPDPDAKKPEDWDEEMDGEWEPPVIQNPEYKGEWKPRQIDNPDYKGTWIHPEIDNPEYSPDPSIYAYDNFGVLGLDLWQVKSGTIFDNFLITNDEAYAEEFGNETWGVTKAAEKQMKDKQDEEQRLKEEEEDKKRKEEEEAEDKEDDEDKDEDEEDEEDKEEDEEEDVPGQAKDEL
UniProt Q5T5Y3: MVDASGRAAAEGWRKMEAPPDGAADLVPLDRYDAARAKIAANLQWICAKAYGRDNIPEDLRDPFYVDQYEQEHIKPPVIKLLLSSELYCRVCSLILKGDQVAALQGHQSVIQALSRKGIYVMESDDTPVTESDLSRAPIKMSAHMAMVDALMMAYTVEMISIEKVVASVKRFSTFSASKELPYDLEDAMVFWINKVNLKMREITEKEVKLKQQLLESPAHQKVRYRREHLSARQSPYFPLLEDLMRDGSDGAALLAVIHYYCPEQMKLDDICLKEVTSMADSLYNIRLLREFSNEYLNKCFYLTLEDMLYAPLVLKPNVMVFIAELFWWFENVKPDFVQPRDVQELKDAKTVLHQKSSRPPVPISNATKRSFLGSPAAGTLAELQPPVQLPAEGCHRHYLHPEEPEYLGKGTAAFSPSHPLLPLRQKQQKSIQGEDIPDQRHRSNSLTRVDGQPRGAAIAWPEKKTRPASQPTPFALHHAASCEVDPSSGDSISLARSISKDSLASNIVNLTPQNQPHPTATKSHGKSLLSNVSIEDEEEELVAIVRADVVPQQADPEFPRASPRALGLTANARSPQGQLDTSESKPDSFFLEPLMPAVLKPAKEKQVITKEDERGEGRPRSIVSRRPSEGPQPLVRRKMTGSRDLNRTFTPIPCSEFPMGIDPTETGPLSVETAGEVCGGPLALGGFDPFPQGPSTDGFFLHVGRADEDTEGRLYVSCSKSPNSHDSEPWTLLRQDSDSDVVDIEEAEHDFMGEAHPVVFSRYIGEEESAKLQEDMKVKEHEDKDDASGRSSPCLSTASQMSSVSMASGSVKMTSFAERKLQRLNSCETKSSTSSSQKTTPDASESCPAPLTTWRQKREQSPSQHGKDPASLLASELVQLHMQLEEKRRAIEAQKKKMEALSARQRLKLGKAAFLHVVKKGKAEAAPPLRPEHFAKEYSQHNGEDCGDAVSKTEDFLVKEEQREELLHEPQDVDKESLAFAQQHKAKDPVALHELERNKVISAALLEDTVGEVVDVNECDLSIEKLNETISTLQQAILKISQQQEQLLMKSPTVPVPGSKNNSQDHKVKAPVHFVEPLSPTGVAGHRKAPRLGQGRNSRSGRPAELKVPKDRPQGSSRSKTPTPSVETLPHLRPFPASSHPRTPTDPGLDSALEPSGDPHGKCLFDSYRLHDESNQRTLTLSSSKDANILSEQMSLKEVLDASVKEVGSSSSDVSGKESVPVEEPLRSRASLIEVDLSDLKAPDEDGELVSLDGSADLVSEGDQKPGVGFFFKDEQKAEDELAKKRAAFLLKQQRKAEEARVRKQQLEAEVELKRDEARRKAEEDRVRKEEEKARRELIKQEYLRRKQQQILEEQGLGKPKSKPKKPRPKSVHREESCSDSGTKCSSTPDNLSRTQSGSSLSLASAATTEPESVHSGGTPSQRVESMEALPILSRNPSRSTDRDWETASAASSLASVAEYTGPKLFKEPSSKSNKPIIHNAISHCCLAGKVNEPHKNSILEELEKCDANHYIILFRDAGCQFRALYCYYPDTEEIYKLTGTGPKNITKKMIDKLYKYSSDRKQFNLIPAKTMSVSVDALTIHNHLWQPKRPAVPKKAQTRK
UniProt O75808: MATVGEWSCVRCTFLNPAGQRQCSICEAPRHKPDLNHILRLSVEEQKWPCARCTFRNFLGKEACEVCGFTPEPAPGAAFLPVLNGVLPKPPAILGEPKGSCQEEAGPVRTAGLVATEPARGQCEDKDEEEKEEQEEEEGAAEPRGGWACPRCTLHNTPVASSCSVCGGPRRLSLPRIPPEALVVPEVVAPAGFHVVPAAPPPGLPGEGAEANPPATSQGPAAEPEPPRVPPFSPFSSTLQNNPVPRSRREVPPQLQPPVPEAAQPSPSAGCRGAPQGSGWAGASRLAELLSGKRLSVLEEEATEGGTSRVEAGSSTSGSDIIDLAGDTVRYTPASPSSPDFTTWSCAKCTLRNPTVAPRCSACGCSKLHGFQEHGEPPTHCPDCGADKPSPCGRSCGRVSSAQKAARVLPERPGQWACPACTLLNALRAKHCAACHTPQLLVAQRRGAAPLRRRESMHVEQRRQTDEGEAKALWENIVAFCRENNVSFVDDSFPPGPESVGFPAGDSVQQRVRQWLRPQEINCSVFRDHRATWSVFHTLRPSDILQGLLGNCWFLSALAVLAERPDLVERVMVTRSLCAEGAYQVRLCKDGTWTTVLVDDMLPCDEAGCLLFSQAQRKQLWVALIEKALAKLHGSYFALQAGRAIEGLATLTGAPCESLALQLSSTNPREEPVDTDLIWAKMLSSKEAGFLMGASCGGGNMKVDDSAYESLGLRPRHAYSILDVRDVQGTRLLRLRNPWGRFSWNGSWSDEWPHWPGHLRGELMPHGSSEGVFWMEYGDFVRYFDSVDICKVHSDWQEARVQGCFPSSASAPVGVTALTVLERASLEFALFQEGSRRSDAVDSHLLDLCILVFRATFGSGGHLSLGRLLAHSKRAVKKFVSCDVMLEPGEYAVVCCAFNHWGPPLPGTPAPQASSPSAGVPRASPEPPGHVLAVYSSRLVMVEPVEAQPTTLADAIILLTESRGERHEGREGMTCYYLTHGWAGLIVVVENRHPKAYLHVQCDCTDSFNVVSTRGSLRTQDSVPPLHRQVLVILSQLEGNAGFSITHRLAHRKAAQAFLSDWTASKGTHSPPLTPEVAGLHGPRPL
UniProt Q96LT7: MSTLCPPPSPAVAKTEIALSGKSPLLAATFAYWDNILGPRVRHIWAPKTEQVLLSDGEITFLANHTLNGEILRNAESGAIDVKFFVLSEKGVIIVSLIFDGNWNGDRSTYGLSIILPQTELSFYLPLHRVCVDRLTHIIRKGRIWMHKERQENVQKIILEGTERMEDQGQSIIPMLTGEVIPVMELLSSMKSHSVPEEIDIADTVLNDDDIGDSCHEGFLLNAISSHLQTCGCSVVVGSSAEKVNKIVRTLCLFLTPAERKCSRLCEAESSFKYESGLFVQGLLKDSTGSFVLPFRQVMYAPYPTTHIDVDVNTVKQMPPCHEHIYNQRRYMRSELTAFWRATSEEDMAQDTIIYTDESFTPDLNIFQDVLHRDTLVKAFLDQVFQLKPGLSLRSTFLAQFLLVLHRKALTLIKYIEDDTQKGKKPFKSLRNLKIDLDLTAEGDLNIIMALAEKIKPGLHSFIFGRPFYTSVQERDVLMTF
UniProt Q9Y376: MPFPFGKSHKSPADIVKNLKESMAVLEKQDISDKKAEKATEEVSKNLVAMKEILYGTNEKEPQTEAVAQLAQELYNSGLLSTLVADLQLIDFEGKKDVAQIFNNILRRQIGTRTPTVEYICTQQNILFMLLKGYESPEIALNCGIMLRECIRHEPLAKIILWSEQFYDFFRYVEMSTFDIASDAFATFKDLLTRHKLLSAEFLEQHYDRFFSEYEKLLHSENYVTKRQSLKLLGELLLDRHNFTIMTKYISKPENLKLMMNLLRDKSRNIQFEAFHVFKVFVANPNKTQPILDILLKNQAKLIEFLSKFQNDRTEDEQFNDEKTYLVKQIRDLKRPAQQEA
UniProt Q96B23: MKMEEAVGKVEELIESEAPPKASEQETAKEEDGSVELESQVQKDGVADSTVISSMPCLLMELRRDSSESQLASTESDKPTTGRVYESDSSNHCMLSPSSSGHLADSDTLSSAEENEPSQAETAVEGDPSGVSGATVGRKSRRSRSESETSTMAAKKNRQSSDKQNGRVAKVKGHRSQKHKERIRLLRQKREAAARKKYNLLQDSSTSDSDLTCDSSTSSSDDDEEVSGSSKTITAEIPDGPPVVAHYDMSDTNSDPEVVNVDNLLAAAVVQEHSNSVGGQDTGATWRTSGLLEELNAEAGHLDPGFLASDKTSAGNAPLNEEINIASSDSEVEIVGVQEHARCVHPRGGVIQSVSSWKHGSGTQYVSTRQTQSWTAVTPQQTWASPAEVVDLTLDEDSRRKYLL
UniProt Q9BRJ6: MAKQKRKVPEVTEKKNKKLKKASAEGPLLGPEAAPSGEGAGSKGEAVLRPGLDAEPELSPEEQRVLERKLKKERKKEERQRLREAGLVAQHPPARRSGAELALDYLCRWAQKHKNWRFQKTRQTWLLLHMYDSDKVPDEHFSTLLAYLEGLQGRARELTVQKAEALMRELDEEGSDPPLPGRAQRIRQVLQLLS
UniProt Q9NSG2: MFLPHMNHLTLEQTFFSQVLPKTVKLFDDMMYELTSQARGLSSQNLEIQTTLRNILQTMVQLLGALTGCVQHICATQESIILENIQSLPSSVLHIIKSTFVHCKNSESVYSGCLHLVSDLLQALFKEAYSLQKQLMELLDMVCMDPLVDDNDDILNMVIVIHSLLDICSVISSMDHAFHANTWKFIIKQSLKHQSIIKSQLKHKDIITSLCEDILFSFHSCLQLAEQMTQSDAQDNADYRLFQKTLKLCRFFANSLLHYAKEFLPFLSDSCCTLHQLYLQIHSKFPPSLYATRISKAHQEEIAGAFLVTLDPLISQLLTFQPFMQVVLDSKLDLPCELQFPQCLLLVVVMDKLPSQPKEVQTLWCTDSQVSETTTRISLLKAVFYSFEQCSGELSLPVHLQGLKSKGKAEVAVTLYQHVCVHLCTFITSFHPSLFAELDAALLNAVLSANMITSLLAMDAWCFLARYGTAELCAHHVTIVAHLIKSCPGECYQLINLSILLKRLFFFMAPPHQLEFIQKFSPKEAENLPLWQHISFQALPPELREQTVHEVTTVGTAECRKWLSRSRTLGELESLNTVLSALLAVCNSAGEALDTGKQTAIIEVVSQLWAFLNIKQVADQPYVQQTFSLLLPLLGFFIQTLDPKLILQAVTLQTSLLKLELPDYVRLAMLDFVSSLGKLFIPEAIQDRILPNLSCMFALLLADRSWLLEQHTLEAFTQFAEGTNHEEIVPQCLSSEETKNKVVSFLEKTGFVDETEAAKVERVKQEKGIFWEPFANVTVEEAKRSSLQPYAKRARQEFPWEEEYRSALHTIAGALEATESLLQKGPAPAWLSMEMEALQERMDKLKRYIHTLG
UniProt Q8TCD1: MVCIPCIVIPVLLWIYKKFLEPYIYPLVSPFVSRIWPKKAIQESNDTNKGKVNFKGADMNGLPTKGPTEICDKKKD
UniProt Q9H0W9: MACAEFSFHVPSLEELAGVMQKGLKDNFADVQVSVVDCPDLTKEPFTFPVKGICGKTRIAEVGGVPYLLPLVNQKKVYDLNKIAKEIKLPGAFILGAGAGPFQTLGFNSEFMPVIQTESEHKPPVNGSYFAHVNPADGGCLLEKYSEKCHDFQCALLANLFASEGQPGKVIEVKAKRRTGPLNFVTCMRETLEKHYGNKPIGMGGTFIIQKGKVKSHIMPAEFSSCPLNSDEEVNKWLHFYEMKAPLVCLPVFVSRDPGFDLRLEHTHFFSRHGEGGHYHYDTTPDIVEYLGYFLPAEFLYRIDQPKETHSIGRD
UniProt Q96EU7: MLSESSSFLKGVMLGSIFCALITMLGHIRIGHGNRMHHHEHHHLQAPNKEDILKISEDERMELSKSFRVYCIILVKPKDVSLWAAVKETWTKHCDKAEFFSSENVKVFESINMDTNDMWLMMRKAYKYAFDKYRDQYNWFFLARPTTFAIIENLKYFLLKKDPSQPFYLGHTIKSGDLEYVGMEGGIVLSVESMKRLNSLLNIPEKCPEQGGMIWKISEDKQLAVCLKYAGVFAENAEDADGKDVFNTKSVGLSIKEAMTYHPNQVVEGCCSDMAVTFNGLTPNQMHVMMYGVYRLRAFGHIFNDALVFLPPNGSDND
UniProt Q8N5S9: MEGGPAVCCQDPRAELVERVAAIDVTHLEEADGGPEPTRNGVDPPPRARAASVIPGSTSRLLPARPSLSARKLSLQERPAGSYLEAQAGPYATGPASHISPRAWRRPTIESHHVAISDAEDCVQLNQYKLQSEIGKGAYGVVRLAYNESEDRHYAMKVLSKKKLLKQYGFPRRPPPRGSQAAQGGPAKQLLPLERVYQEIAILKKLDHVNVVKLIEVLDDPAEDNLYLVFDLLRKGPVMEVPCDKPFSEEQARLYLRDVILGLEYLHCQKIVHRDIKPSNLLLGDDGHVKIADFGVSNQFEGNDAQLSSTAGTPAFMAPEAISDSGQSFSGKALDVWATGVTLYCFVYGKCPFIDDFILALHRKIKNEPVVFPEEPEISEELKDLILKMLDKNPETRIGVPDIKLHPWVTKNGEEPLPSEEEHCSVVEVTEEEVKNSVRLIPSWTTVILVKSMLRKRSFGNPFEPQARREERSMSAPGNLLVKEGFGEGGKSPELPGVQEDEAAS

Legend:
Assay in all cases: log2 fold change, soluble protein after heating vs DMSO (PISA); higher = thermal stabilisation; K562 lysate, 10 uM; active = over 0.2 and 3.5 SD of the protein, either way, in both replicates (recomputed)
[1] = compound: CS(=O)(=O)CCNCc1ccc(-c2ccc3ncnc(Nc4ccc(OCc5cccc(F)c5)c(Cl)c4)c3c2)o1 [lapatinib]
How it was run: (§1)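 Pellets of K562 cells were dounce-homogenised in PBS pH 7.4 with 1 mM MgCl2, and the crude extract was held at 1 mg/mL protein for a 30 min treatment with 10 μM compound. Aliquots were heated for 3 min over 48°C-58°C and pooled before NP-40 was added to 0.5% at 4°C. The supernatant from 21,000xg for 90 min was quantified by TMTpro 16plex LC-MS/MS with channel sums equalised. Values are reported from duplicates as log-two fold change in thermal stability relative to solvent controls.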

[2] = compound: CS(=O)(=O)N1CCN(Cc2cc3nc(-c4cccc5[nH]ncc45)nc(N4CCOCC4)c3s2)CC1 [pictilisib]
How it was run: as §1

[3] = compound: C[C@@H](Oc1cc(-c2cnn(C3CCNCC3)c2)cnc1N)c1c(Cl)ccc(F)c1Cl [crizotinib]
How it was run: as §1

[4] = compound: C[C@H](C1=CC=C(C=C1)C(=O)NC2=C3C=CNC3=NC=C2)N
How it was run: as §1

[5] = compound: C[C@H](Nc1ncnc2nc[nH]c12)c1cc2cccc(Cl)c2c(=O)n1-c1ccccc1 [duvelisib]
How it was run: as §1

[6] = compound: Cc1cc(Nc2cc(CN3CCOCC3)c3nc(C)c(Cc4ccc(Cl)cc4F)n3n2)n[nH]1 [gandotinib]
How it was run: as §1

[7] = compound: Cc1cc(Nc2cc(N3CCN(C)CC3)nc(Sc3ccc(NC(=O)C4CC4)cc3)n2)n[nH]1 [tozasertib]
How it was run: as §1

[8] = compound: Cc1ccc(-n2nc(C(C)(C)C)cc2NC(=O)Nc2ccc(OCCN3CCOCC3)c3ccccc23)cc1 [doramapimod]
How it was run: as §1

[9] = compound: Cc1ccc(NC(=O)c2ccc(CN3CC[C@H](N(C)C)C3)c(C(F)(F)F)c2)cc1Nc1nccc(-c2cncnc2)n1 [bafetinib]
How it was run: as §1

[10] = compound: Cc1cccc(CC(=O)N2CCc3c2ccc(-c2cn(C)c4ncnc(N)c24)c3F)n1
How it was run: as §1

Row | Target | log2 fold change [1] | log2 fold change [2] | log2 fold change [3] | log2 fold change [4] | log2 fold change [5] | log2 fold change [6] | log2 fold change [7] | log2 fold change [8] | log2 fold change [9] | log2 fold change [10]
1 | CALR (UniProt P27797) | inactive: -0.004 | inactive: 0.032 | inactive: 0.035 | inactive: 0.102 | inactive: -0.005 | inactive: -0.038 | inactive: -0.014 | inactive: -0.05 | inactive: 0.047 | inactive: -0.029
2 | C5orf22 (UniProt Q49AR2) | inactive: 0.02 | inactive: 0.004 | inactive: 0.015 | inactive: -0.01 | inactive: 0.011 | inactive: -0.012 | inactive: -0.016 | inactive: -0.003 | inactive: 0.004 | inactive: 0.018
3 | CAPNS1 (UniProt P04632) | inactive: 0.064 | inactive: 0.024 | inactive: 0.047 | inactive: -0.21 | inactive: -0.015 | inactive: 0.15 | inactive: -0.042 | inactive: 0.079 | inactive: 0.016 | inactive: 0.005
4 | C8orf37 (UniProt Q96NL8) | inactive: -0.095 | inactive: 0.006 | inactive: 0.043 | active: -0.559 | inactive: 0.046 | inactive: -0.06 | inactive: 0.006 | inactive: 0.043 | inactive: 0.09 | inactive: 0.238
5 | C9orf64 (UniProt Q5T6V5) | inactive: -0.014 | inactive: 0.004 | inactive: -0.011 | inactive: -0.015 | inactive: 0.036 | inactive: -0.013 | inactive: 0.02 | inactive: -0.004 | inactive: -0.022 | inactive: -0.018
6 | CAMSAP1 isoform 3 (UniProt Q5T5Y3) | inactive: 0.028 | inactive: -0.004 | inactive: 0.004 | inactive: 0.057 | inactive: 0.017 | inactive: -0.015 | inactive: 0.016 | inactive: 0.006 | inactive: -0.055 | inactive: -0.087
7 | CAPN15 (UniProt O75808) | inactive: 0.063 | inactive: -0.046 | inactive: -0.047 | inactive: 0.004 | inactive: -0.022 | inactive: -0.033 | inactive: 0.042 | inactive: 0.106 | inactive: -0.003 | inactive: -0.01
8 | C9orf72 (UniProt Q96LT7) | inactive: 0.061 | inactive: -0.112 | inactive: 0.082 | inactive: -0.075 | inactive: -0.072 | inactive: 0.035 | inactive: -0.196 | inactive: 0.03 | inactive: -0.043 | inactive: -0.009
9 | CACTIN isoform 2 (UniProt Q8WUQ7) | inactive: -0.036 | inactive: -0.028 | inactive: -0.033 | inactive: -0.01 | inactive: -0.064 | inactive: -0.083 | inactive: 0.051 | inactive: 0.018 | inactive: -0.172 | inactive: -0.026
10 | CAB39 (UniProt Q9Y376) | inactive: -0.001 | inactive: -0.025 | inactive: 0.059 | inactive: 0.004 | inactive: 0.017 | inactive: 0.012 | inactive: 0.008 | inactive: 0 | inactive: 0.009 | inactive: -0.019
11 | BUB1B isoform 3 (UniProt O60566) | inactive: 0.009 | inactive: -0.038 | inactive: -0.059 | inactive: 0.007 | inactive: 0.024 | inactive: -0.04 | inactive: -0.01 | inactive: 0.019 | inactive: -0.029 | inactive: 0.035
12 | C3 (UniProt P01024) | inactive: 0.011 | inactive: -0.01 | inactive: 0.042 | inactive: -0.095 | inactive: -0.073 | inactive: 0.044 | inactive: 0.068 | inactive: -0.006 | inactive: 0.019 | inactive: 0.019
13 | C18orf25 (UniProt Q96B23) | inactive: 0.017 | inactive: -0.003 | inactive: -0.049 | inactive: 0.022 | inactive: -0.046 | inactive: 0.019 | inactive: -0.029 | inactive: 0.019 | inactive: -0.023 | inactive: -0.098
14 | C7orf50 (UniProt Q9BRJ6) | inactive: -0.012 | inactive: 0.116 | inactive: -0.036 | inactive: -0.021 | inactive: 0.09 | inactive: -0.03 | inactive: 0.004 | inactive: 0.019 | inactive: -0.092 | inactive: 0.038
15 | C1orf112 (UniProt Q9NSG2) | inactive: 0.018 | inactive: -0.004 | inactive: -0.055 | inactive: -0.073 | inactive: -0.035 | inactive: 0.232 | inactive: -0.091 | inactive: 0.021 | inactive: 0.005 | active: 0.279
16 | CA13 (UniProt Q8N1Q1) | inactive: -0.022 | inactive: -0.017 | inactive: 0.08 | inactive: 0.013 | inactive: 0.053 | inactive: -0.004 | inactive: 0.025 | inactive: -0.046 | inactive: -0.017 | inactive: -0.015
17 | C6orf89 isoform 2 (UniProt Q6UWU4) | inactive: -0.099 | inactive: 0.046 | inactive: 0.015 | inactive: -0.011 | inactive: 0 | inactive: 0 | inactive: 0.024 | inactive: 0.009 | inactive: -0.082 | inactive: -0.01
18 | CALCOCO2 isoform 4 (UniProt Q13137) | inactive: -0.007 | inactive: -0.015 | inactive: 0.009 | inactive: -0.066 | inactive: 0.016 | inactive: 0.034 | inactive: 0.019 | inactive: -0.005 | inactive: 0.009 | inactive: 0.035
19 | CAPRIN1 (UniProt Q14444) | inactive: -0.013 | inactive: -0.006 | inactive: 0.054 | inactive: 0.084 | inactive: -0.029 | inactive: -0.026 | inactive: -0.051 | inactive: -0.017 | inactive: 0.098 | inactive: -0.096
20 | C8orf82 (UniProt Q6P1X6) | inactive: 0.022 | inactive: -0.022 | inactive: -0.035 | inactive: -0.017 | inactive: 0.029 | inactive: 0 | inactive: -0.016 | inactive: 0.045 | inactive: 0.041 | inactive: 0.024
21 | CA8 (UniProt P35219) | inactive: 0.007 | inactive: -0.009 | inactive: -0.02 | inactive: -0.034 | inactive: 0.031 | inactive: 0.02 | inactive: -0.005 | inactive: 0.003 | inactive: 0.009 | inactive: -0.037
22 | C2orf68 (UniProt Q2NKX9) | inactive: -0.023 | inactive: 0.017 | inactive: 0.045 | inactive: -0.105 | inactive: -0.053 | inactive: 0.092 | inactive: 0.061 | inactive: 0.147 | inactive: -0.073 | inactive: -0.087
23 | C7orf26 (UniProt Q96N11) | inactive: -0.036 | inactive: -0.115 | inactive: -0.016 | inactive: -0.057 | inactive: 0.054 | inactive: 0.014 | inactive: -0.101 | inactive: 0.096 | inactive: -0.007 | inactive: 0.123
24 | C18orf32 (UniProt Q8TCD1) | inactive: -0.012 | inactive: 0.041 | inactive: -0.07 | inactive: -0.093 | inactive: -0.203 | inactive: 0.001 | inactive: -0.011 | inactive: -0.01 | inactive: -0.04 | inactive: 0.047
25 | C11orf54 (UniProt Q9H0W9) | inactive: -0.002 | inactive: -0.016 | inactive: -0.025 | inactive: 0.001 | inactive: 0.055 | inactive: 0.011 | inactive: -0.027 | inactive: -0.031 | inactive: 0.006 | inactive: 0.013
26 | CALU isoform 4 (UniProt O43852) | inactive: -0.038 | inactive: -0.043 | inactive: 0.05 | inactive: -0.076 | inactive: 0.025 | inactive: 0.06 | inactive: 0.026 | inactive: 0 | inactive: -0.03 | inactive: -0.02
27 | C1GALT1C1 (UniProt Q96EU7) | inactive: 0.085 | inactive: 0.046 | inactive: -0.021 | inactive: 0.138 | inactive: -0.019 | inactive: 0.014 | inactive: -0.007 | inactive: 0.046 | inactive: 0.302 | inactive: -0.037
28 | CAMKK1 isoform 2 (UniProt Q8N5S9) | inactive: 0.061 | inactive: -0.074 | inactive: -0.023 | inactive: 0.032 | inactive: -0.069 | active: 0.424 | inactive: -0.067 | inactive: 0.016 | inactive: -0.021 | inactive: -0.033
29 | C6orf47 (UniProt O95873) | inactive: 0.009 | inactive: 0.011 | inactive: -0.026 | inactive: -0.214 | inactive: 0.008 | inactive: 0.086 | inactive: -0.052 | inactive: 0.028 | inactive: 0.017 | inactive: 0.142

Just log2 fold change [7] and log2 fold change [6], for some of the entries so far:
Row,Target,log2 fold change [7],log2 fold change [6]
1,CALR (UniProt P27797),inactive: -0.014,inactive: -0.038
2,C5orf22 (UniProt Q49AR2),inactive: -0.016,inactive: -0.012
